Data source: PubChem BioAssay AID504793 (Drosophila RNAi Screening Center, 2011)

Test: 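Genes required for cells to halt at G2/M after double-strand DNA breaks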 (primary screen)
Cell system: Drosophila S2R+ cells
Knock-down reagent: long dsRNA against Drosophila genes, about 0.25 µg dsRNA per well
Time to read-out: 4 days of dsRNA, then 4 hours of drug before read-out
Conditions: doxorubicin 0.5 µM for 4 hours to cause double-strand breaks, in cells also given a low, harmless dose of dsRNA against nbs to sensitise the assay
Measurement: 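Per-well count of mitotic cells stained for phospho-histone H3 after doxorubicin exposure, used as mitotic index; counts are raw and not normalised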
Direction: mitotic cells: higher = more cells in mitosis, weaker G2 arrest
Active means: 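Genes are called active only when high mitotic counts were reproduced with independent dsRNAs and mitosis was checked for delay without damage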
Meaning of the calls: active = confirmed in follow-up tests; inactive = not confirmed
The screen tested about 23,000 reagents; below is an unselected part of those with a known target gene and a result. In the full data, 62 (0.27%) are marked active. 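Calls come from follow-up tests whose scores are not deposited, so confirmed genes may have low counts here; counts are not normalised per plate.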 Raw values vary from plate to plate and are shown uncorrected. Names joined by + are all predicted targets of the reagent.

Gene | dsRNA | mitotic cells, replicate 1 | mitotic cells, replicate 2 | Outcome
CG7255 (GeneID 39662) | DRSC10790 | 5 | – | inactive
Lip3 (GeneID 41643) | DRSC16727 | 8 | – | inactive
Lip3 (GeneID 41643) | DRSC29354 | 8 | – | inactive
MESR4 (GeneID 36986) | DRSC06901 | 4 | – | inactive
Edem2 (GeneID 34714) | DRSC02877 | 5 | – | inactive
Edem2 (GeneID 34714) | DRSC26898 | 10 | – | inactive
Fum3 (GeneID 39281) | DRSC10592 | 10 | – | inactive
Fum3 (GeneID 39281) | DRSC25432 | 5 | – | inactive
CG4631 (GeneID 34988) | DRSC02766 | 14 | – | inactive
CG4631 (GeneID 34988) | DRSC22194 | 11 | – | inactive
CG2617 (GeneID 35331) | DRSC02712 | 3 | – | inactive
CG2617 (GeneID 35331) | DRSC24947 | 4 | – | inactive
CG30043 (GeneID 246412) | DRSC06285 | 7 | – | inactive
beat-Ic (GeneID 34945) | DRSC01524 | 4 | – | inactive
beat-Ic (GeneID 34945) | DRSC03491 | 2 | – | inactive
beat-Ic (GeneID 34945) | DRSC23508 | 5 | – | inactive
CG11380 (GeneID 31065) | DRSC23223 | 15 | – | inactive
CG11380 (GeneID 31065) | DRSC29190 | 4 | – | inactive
fsd (GeneID 36463) | DRSC06166 | 2 | – | inactive
Rrp4 (GeneID 37731) | DRSC04434 | 5 | – | inactive
Rrp4 (GeneID 37731) | DRSC29543 | 9 | – | inactive
Ir92a (GeneID 42415) | DRSC15111 | 4 | – | inactive
stan (GeneID 36125) | DRSC05234 | 7 | – | inactive
stan (GeneID 36125) | DRSC07697 | 14 | – | inactive
CG34353 (GeneID 5740590) | DRSC14493 | 11 | – | inactive
CG34353 (GeneID 5740590) | DRSC14517 | 11 | – | inactive
CG34353 (GeneID 5740590) | DRSC14563 | 13 | – | inactive
CG34353 (GeneID 5740590) | DRSC15837 | 9 | – | inactive
CG34353 (GeneID 5740590) | DRSC22429 | 13 | – | inactive
CG34353 (GeneID 5740590) | DRSC27095 | 4 | – | inactive
CG34353 (GeneID 5740590) | DRSC30113 | 6 | – | inactive
CG4984 + CG4975 | DRSC06907 | 4 | – | inactive
CG4984 + CG4975 | DRSC06908 | 5 | – | inactive
CG13048 (GeneID 39789) | DRSC09929 | 6 | – | inactive
CG13048 (GeneID 39789) | DRSC26938 | – | – | inactive
CG16935 (GeneID 36540) | DRSC06638 | 9 | – | inactive
CG14505 (GeneID 37098) | DRSC06476 | 5 | – | inactive
CG12708 + CG15646 | DRSC23549 | 4 | – | inactive
kairos (GeneID 32815) | DRSC23286 | 13 | – | inactive
kairos (GeneID 32815) | DRSC30011 | 4 | – | inactive
wac (GeneID 38044) | DRSC08349 | 93 | – | inactive
wac (GeneID 38044) | DRSC28973 | 29 | – | inactive
CG18628 (GeneID 39205) | DRSC10328 | 5 | – | inactive
CG14692 (GeneID 41298) | DRSC14915 | 4 | – | inactive
Adck5 (GeneID 39260) | DRSC10890 | 6 | – | inactive
ppk26 (GeneID 38835) | DRSC10991 | 5 | – | inactive
ppk26 (GeneID 38835) | DRSC25876 | 6 | – | inactive
CG8679 (GeneID 35395) | DRSC03109 | – | – | inactive
Nep5 (GeneID 43255) | DRSC16004 | 4 | – | inactive
CG31211 (GeneID 41443) | DRSC14953 | 17 | – | inactive
CG31211 (GeneID 41443) | DRSC15344 | 3 | – | inactive
CG31211 (GeneID 41443) | DRSC21478 | 5 | – | inactive
dbr (GeneID 33161) | DRSC00274 | 3 | – | inactive
CG1941 (GeneID 35718) | DRSC06802 | 7 | – | inactive
CG4702 (GeneID 41472) | DRSC15626 | 6 | – | inactive
CG42562 (GeneID 37008) | DRSC06453 | 5 | – | inactive
l(2)37Bb (GeneID 49427) | DRSC02088 | 4 | 9 | inactive
CG32551 (GeneID 318085) | DRSC19259 | 48 | – | inactive
CG7222 (GeneID 36138) | DRSC07019 | 7 | – | inactive
zfh2 (GeneID 43795) | DRSC17178 | 7 | – | inactive
zfh2 (GeneID 43795) | DRSC28010 | 3 | – | inactive
ND-SGDH (GeneID 46260) | DRSC11102 | 5 | – | inactive
CG42671 (GeneID 39268) | DRSC09093 | 4 | – | inactive
CG42671 (GeneID 39268) | DRSC10321 | 6 | – | inactive
CG42671 (GeneID 39268) | DRSC29747 | 1 | – | inactive
SIFaR (GeneID 42530) | DRSC13467 | 2 | – | inactive
SIFaR (GeneID 42530) | DRSC14266 | 6 | – | inactive
CG3634 (GeneID 40301) | DRSC11747 | 6 | – | inactive
asRNA:CR42547 + CG15674 | DRSC04264 | 5 | – | inactive
CG11384 (GeneID 31061) | DRSC18628 | 5 | – | inactive
CG10286 (GeneID 40786) | DRSC12520 | 4 | – | inactive
CG7335 (GeneID 40203) | DRSC10816 | 4 | – | inactive
CG7335 (GeneID 40203) | DRSC26314 | 3 | – | inactive
Coa7 (GeneID 3355158) | DRSC20967 | 11 | – | inactive
Coa7 (GeneID 3355158) | DRSC27224 | 5 | – | inactive
CG33217 (GeneID 2768951) | DRSC22907 | 12 | – | inactive
CG33217 (GeneID 2768951) | DRSC28139 | 9 | – | inactive
SmF (GeneID 36314) | DRSC07397 | 4 | – | inactive
SmF (GeneID 36314) | DRSC25054 | – | – | inactive
moi + Tgs1 | DRSC16371 | 9 | – | inactive
CG13016 (GeneID 36562) | DRSC06271 | 9 | – | inactive
CG13101 (GeneID 34221) | DRSC02201 | 6 | – | inactive
Cap-G (GeneID 36440) | DRSC06652 | 1 | – | inactive
Cap-G (GeneID 36440) | DRSC06653 | 7 | – | inactive
Cap-G (GeneID 36440) | DRSC21805 | 19 | – | inactive
CG2608 (GeneID 35323) | DRSC02709 | 5 | – | inactive
CG14153 (GeneID 39208) | DRSC10155 | 3 | – | inactive
CG14153 (GeneID 39208) | DRSC22595 | 6 | – | inactive
Pex3 (GeneID 39652) | DRSC10731 | 10 | – | inactive
ZnT63C (GeneID 38407) | DRSC08032 | 16 | – | inactive
ZnT63C (GeneID 38407) | DRSC08033 | 10 | – | inactive
ZnT63C (GeneID 38407) | DRSC08519 | 4 | – | inactive
ZnT63C (GeneID 38407) | DRSC21989 | 15 | – | inactive
ZnT63C (GeneID 38407) | DRSC23528 | 4 | – | inactive
CG32091 (GeneID 39307) | DRSC10820 | 10 | – | inactive
RluA-1 (GeneID 34438) | DRSC02240 | 11 | – | inactive
RluA-1 (GeneID 34438) | DRSC03060 | 5 | – | inactive
CG32590 (GeneID 318103) | DRSC19594 | 9 | – | inactive
CG31460 (GeneID 318747) | DRSC14370 | 2 | – | inactive
CG10164 (GeneID 42777) | DRSC14197 | 13 | – | inactive
CG42564 (GeneID 40788) | DRSC12518 | 6 | – | inactive
CG9098 (GeneID 33840) | DRSC03136 | 4 | 8 | inactive
CG9098 (GeneID 33840) | DRSC22501 | 6 | – | inactive
CG9098 (GeneID 33840) | DRSC28828 | 4 | – | inactive
CG14621 (GeneID 33128) | DRSC20635 | 5 | – | inactive
CG14621 (GeneID 33128) | DRSC27094 | 7 | – | inactive
CG32191 (GeneID 317903) | DRSC10522 | 5 | – | inactive
CG11425 (GeneID 40472) | DRSC11657 | 5 | – | inactive
CG11425 (GeneID 40472) | DRSC28400 | 4 | – | inactive
KrT95D (GeneID 42843) | DRSC16725 | 11 | – | inactive
KrT95D (GeneID 42843) | DRSC25551 | 12 | – | inactive
